# Test results taken from PubChem BioAssay AID504648 (National Center for Advancing Translational Sciences (NCATS), 2011).
# In all, about 390,000 compounds went through this assay and about 610 (0.16%) were called active. Inconclusive means that the source gave no clear call. Such entries were picked first, then a sample of the others. Calls follow the shape of the dose curve; as a rule, active = well fitted inhibition curve with a large enough effect; inconclusive = small, poorly fitted or top-dose-only effect, or effect the other way, or another doubt; inactive = no such curve, though single readings can be large or run the other way. Potencies beside an inconclusive call are fits to weak or partial responses and may not hold up.
# Assay: Nrf2 qHTS screen for inhibitors: counterscreen for cytotoxicity
# Settings: A549 ARE-Fluc cells, CellTiter-Fluor viability, 18-24 h; activity change, negative = cytotoxicity: at 46 µM (top of the series)
# Procedure, shortened: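 A549 ARE-Fluc cells in 5% FBS OPTI-MEM, 5000 cells/well, rested 2 h then exposed to compounds in concentration-response for 18-24 h at 37 °C. Viability by CellTiter-Fluor fluorescence (Ex 405/Em 525) after 30 min; luciferase luminescence (BugLite, 15 min, RT) read afterwards.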
# % is scaled to controls: 0 for no effect and ±100 for the full control effect; potency is read from the fitted curve at half-maximal effect.
Compound,"activity change, negative = cytotoxicity",Potency
O=C1CCCC2=C1C(c1ccc(O)c(Br)c1)C1=C(CCCC1=O)N2c1ccccc1,inactive: -0.0143%,
CC(=O)c1c(C)[nH]c(C(=O)Nc2cccc(C(F)(F)F)c2)c1C,,"inconclusive: 29.1 µM [falling, partial curve, poor fit]"
COc1ccc(C(=O)NCCn2cc(SCc3c(F)cccc3Cl)c3ccccc32)cc1,,"inconclusive: 10.3 µM [falling, partial curve, poor fit]"
O=C(NCC1CCCO1)c1cnn2c(C(F)F)cc(C3CC3)nc12 (centres undefined),inactive: -26.4%,
COc1cccc(/C=C/C(=O)NCc2cn3cc(Cl)ccc3n2)c1,,"inconclusive: 10.3 µM [activator, partial curve, poor fit]"
C=CCN1C(=O)/C(=C/c2ccc(O)cc2)S/C1=N/c1nccs1,,"inconclusive: 32.6 µM [falling, partial curve, poor fit]"
O=C(N/N=C/c1ccc([N+](=O)[O-])s1)C(O)c1ccccc1 (centres undefined),,"inconclusive: 16.4 µM [falling, single point]"
COc1ccc(NS(=O)(=O)c2ccc(N/N=C(\C)c3ccncc3)c([N+](=O)[O-])c2)cc1,,"inconclusive: 32.6 µM [falling, partial curve, poor fit]"
COC(=O)CSc1nc(COc2ccccc2)nc2ccccc12,inactive: -2.32%,
O=C(NCCCn1ccnc1)c1cc2nc(-c3ccc(Br)cc3)cc(C(F)(F)F)n2n1,,"inconclusive: 18.4 µM [falling, single point]"
CS(=O)(=O)c1ccc(C(=O)OCC(=O)NC(=O)C2CCCCC2)cc1[N+](=O)[O-],,"inconclusive: 23.1 µM [falling, single point]"
COc1ccc(OCc2nnnn2-c2ccccc2)cc1,,"inconclusive: 32.6 µM [falling, partial curve, poor fit]"
Cc1ccc(C(=O)N2CCCCC2)cc1NC(=O)c1nsc2ccccc12,inactive: 0.31%,
Cc1ccc(N/C(C(Cl)=C(Cl)Cl)=C(/Cl)[N+](=O)[O-])c(C)c1,inactive: -1.93%,
O=[N+]([O-])c1cc(S(=O)(=O)NC2=NCCCCC2)ccc1NCC1CCCCC1,,"inconclusive: 16.4 µM [falling, single point]"
COc1ccc(CN2CCN(Cc3ccc4ccccc4c3)CC2)cc1OC,inactive: -3.06%,
CC(=O)Nc1cc[n+](CC(=O)c2ccc(Cl)cc2)cc1,inactive: -1.97%,
C=C(C(=O)c1ccccc1)C(C)C(=C)C(=O)c1ccccc1,,"inconclusive: 29.1 µM [falling, single point]"
C[C@H]1[C@H](C)CC[C@]2(C(=O)O)CC[C@]3(C)C(=CC[C@@H]4[C@@]5(C)C[C@@H](O)[C@H](O)C(C)(C)[C@@H]5CC[C@]43C)[C@H]12,,"inconclusive: 29.1 µM [falling, single point]"
Cc1ccc(OCc2nnc(SCc3nc4ccccc4[nH]3)n2Cc2ccco2)cc1,inactive: -14%,
Cc1ccc(C)c(NC(=S)NC(NC(=O)Cc2cccc3ccccc23)C(Cl)(Cl)Cl)c1 (centres undefined),,active: 20.6 µM
Cc1oc2ccc(NS(=O)(=O)c3ccc(C(C)(C)C)cc3)cc2c1C(=O)Nc1ccccc1,,"inconclusive: 29.1 µM [falling, partial curve, poor fit]"
O=C(Cc1ccc(S(=O)(=O)N2CCCC2)s1)N1CCN(c2ccc(F)cc2)CC1,inactive: -12%,

Compound,"activity change, negative = cytotoxicity",Potency
O=C(NN1C(=O)C2C(c3ccccc3)C=CC(c3ccccc3)C2C1=O)c1cccc(Br)c1 (centres undefined),inactive: 6.83%,
CCCSc1ncc(Cl)c(C(=O)Nc2c(C(=O)c3ccc(C)cc3)oc3ccccc23)n1,inactive: -2.06%,
Cc1ccc(-c2cc3nc(-c4ccccc4)cc(N4CCOCC4)n3n2)cc1,inactive: 5.28%,
COc1ccc(OC)c(N=Nc2c(O)c3ccccc3[nH]c2=O)c1,,"inconclusive: 18.4 µM [falling, single point]"
CCOC(=O)Cn1nnc(-c2cccc(OC)c2)n1,,"inconclusive: 18.4 µM [activator, partial curve, poor fit]"
c1cc(-n2nnc3cnccc32)ccn1,,"inconclusive: 6.51 µM [activator, single point]"
CCOC(=O)N1CCN(c2nc(-c3ccccc3)c3cc(C)ccc3n2)CC1,,"inconclusive: 14.6 µM [activator, partial curve, poor fit]"
CC(C)c1ccc(S(=O)(=O)Nc2ccc(SC(F)F)cc2)cc1,inactive: -2.17%,
Cc1ccc(C)c(NC(=O)Cn2nc(C)c3nn(-c4ccc(Cl)cc4)c(C)c3c2=O)c1,inactive: -10.6%,
COc1cc2[nH]c(=O)n(Cc3ccc(C(=O)N4CCN(c5ccc(Cl)cc5)CC4)cc3)c(=O)c2cc1OC,inactive: -6.65%,
CCOC(=O)c1c(C)n(C)c2ccc(OCC(O)CN3CCCCCC3)cc12 (centres undefined),,"inconclusive: 29.1 µM [falling, single point]"
Cc1cc(Br)ccc1NC(=O)CN(C)C(=O)COc1cccc2c1OC(C)(C)C2,inactive: -0.467%,
Cc1c(C(=O)O)c(O)cc2c1C(=O)c1c(O)c([C@@H]3O[C@H](CO)[C@@H](O)[C@H](O)[C@H]3O)c(O)c(O)c1C2=O,,active: 20.6 µM
COc1c(-c2ccccc2)oc2c(ccc3occc32)c1=O,,"inconclusive: 13 µM [falling, partial curve, poor fit]"
CC(=O)Nc1ccc2c(c1)Cc1cc(N3C(=O)C=CC3=O)ccc1-2,inactive: -5.28%,
O=C(COc1ccccc1/C=C1\SC(=S)NC1=O)Nc1ccc(F)cc1,,"inconclusive: 11.6 µM [falling, partial curve]"
C=CC(=O)Nc1cccc(N(C)c2ccnc(Nc3ccc(N4CCN(C)CC4)cc3)n2)c1,,active: 1.03 µM
CCOC(=O)c1ccc2c(c1)nc(SCC(=O)c1cc3ccccc3o1)n2CC,inactive: -7.2%,
c1ccc2c(c1)N1CCN=C1N2CCN1CCCCC1,,"inconclusive: 3.66 µM [falling, partial curve, poor fit]"
CN1CCN(c2ccc([N+](=O)[O-])cc2C(=O)c2ccc(Cl)cc2)CC1,,"inconclusive: 23.1 µM [falling, partial curve, poor fit]"
O=C(CN1CCN(Cc2ccccc2)CC1)Nc1ccc([N+](=O)[O-])cc1C(=O)Nc1ccccc1F,,"inconclusive: 25.9 µM [falling, partial curve, poor fit]"
COc1ccc(C(=O)/C=C/c2ccc(OC)c(Cn3nnc4ccccc43)c2)cc1,,"inconclusive: 29.1 µM [falling, single point]"
Cc1ccccc1OCc1nc2c3cnn(-c4cccc(F)c4)c3ncn2n1,inactive: -2.26%,

# In the list so far, 2 have a COOH group.
Compound,"activity change, negative = cytotoxicity",Potency
C[C@H]1[C@H](C)CC[C@]2(C(=O)O)CC[C@]3(C)C(=CC[C@@H]4[C@@]5(C)C[C@@H](O)[C@H](O)C(C)(C)[C@@H]5CC[C@]43C)[C@H]12,,"inconclusive: 29.1 µM [falling, single point]"
Cc1c(C(=O)O)c(O)cc2c1C(=O)c1c(O)c([C@@H]3O[C@H](CO)[C@@H](O)[C@H](O)[C@H]3O)c(O)c(O)c1C2=O,,active: 20.6 µM

# The results go on.

Compound,"activity change, negative = cytotoxicity",Potency
N=c1oc2cc(O)ccc2cc1C(=O)Nc1nc2ccccc2s1,,"inconclusive: 18.4 µM [activator, partial curve]"
COc1cc(/C=N/NC(=O)Nc2ccccc2)ccc1OCCOc1ccccc1C,,active: 5.8 µM
CCOC(=O)c1c(-c2ccco2)csc1N,,"inconclusive: 2.31 µM [activator, partial curve, poor fit]"
c1ccc(CN2CCC(Nc3nc(-c4ccccc4)nc4ccccc34)CC2)cc1,,"inconclusive: 18.4 µM [falling, single point]"
O=C1ON=C(c2ccccc2)/C1=C/c1ccc(O)c(O)c1,inactive: -6.59%,
O=C1CCC[C@@H]2C[C@@]3(C[C@@H]4CCN1[C@H]24)Nc1cc([N+](=O)[O-])ccc1NC3=NC1CCCCC1,,"inconclusive: 18.4 µM [falling, single point]"
CSc1nnc(-c2cc3c(s2)-c2ccccc2CC3)o1,inactive: 15%,
CCn1c(SCC(=O)Nc2nc(-c3ccc(C)cc3)cs2)nnc1-c1ccccc1,,"inconclusive: 18.4 µM [falling, partial curve, poor fit]"
C=C(C)C(=O)N1CC2(CC(c3cccc(NC(=O)CC(c4ccccc4)c4ccccc4)c3)=NO2)C[C@H]1C(N)=O (some centres undefined),,"inconclusive: 16.4 µM [falling, single point]"
CC(OC(=O)c1ccc(NC(=O)CC#N)cc1)C(=O)NC(c1ccccc1)c1ccccc1 (centres undefined),inactive: 2.33%,
CCOC(=O)c1ccccc1NC(=O)COC(=O)c1cc([N+](=O)[O-])ccc1N1CCOCC1,,"inconclusive: 18.4 µM [falling, single point]"
Cc1ccccc1OCC(=O)NNC(=O)C1CCCCC1C(=O)O (centres undefined),inactive: 1.2%,
N#Cc1ccc(OCC(=O)OCC(=O)Nc2ccc(N3CCOCC3)cc2)cc1,inactive: -2.11%,
Cc1cc(C)cc(NC(=O)CSCc2cnn(-c3ccccc3)c2-n2cccc2)c1,,"inconclusive: 9.2 µM [falling, single point]"
CCOc1ccc(CCNC(=O)c2nc(-c3cccc(F)c3)n3c2CCCCC3)cc1OCC,,"inconclusive: 23.1 µM [falling, single point]"
CCOc1ccccc1NC(=O)Cn1nnc(C(=O)NCc2ccco2)c1N,,"inconclusive: 0.291 µM [falling, full curve, poor fit]"
CCCN1CNc2c(c(=O)[nH]c(=S)n2CCc2cc(Cl)cc(Cl)c2)C1,inactive: 12.3%,
N#CCCn1cc(/C=C2\NC(=S)N(c3ccccc3)C2=O)c(-c2ccc(-c3ccccc3)cc2)n1,,active: 20.6 µM
CCC1CC=CC2C1C(=O)N(Cc1ccccc1)C2c1cccc([N+](=O)[O-])c1 (centres undefined),,"inconclusive: 23.1 µM [falling, partial curve, poor fit]"
Cc1cnc(NC(=O)CN2CCN(c3ccccn3)CC2)s1,,"inconclusive: 18.4 µM [falling, partial curve, poor fit]"
CN(CC(=O)Nc1ccccc1)CC(=O)Nc1ccc(F)cc1,inactive: -1.52%,
CN(CCOc1ccccc1)CC(=O)Nc1ccc([N+](=O)[O-])cc1Cl,inactive: -0.927%,
CC(=O)[C@@]1(O)CC[C@H]2[C@@H]3C[C@H](C)C4=CC(=O)CC[C@]4(C)[C@H]3CC[C@@]21C,inactive: 0.878%,
